Consider 13 molecules from patent US20230242871A1, “GENERATION OF PRIMORDIAL GERM CELLS AND METHODS OF USING THE SAME” (The Board of Trustees of the Leland Stanfor Junior …, priority 2020, published 2023).

B1: CD344 (protein, UniProt Q9ULV1 37-537, looked up)
Frizzled-4: FGDEEERRCDPIRISMCQNLGYNVTKMPNLVGHELQTDAELQLTTFTPLIQYGCSSQLQFFLCSVYVPMCTEKINIPIGPCGGMCLSVKRRCEPVLKEFGFAWPESLNCSKFPPQNDHNHMCMEGPGDEEVPLPHKTPIQPGEECHSVGTNSDQYIWVKRSLNCVLKCGYDAGLYSRSAKEFTDIWMAVWASLCFISTAFTVLTFLIDSSRFSYPERPIIFLSMCYNIYSIAYIVRLTVGRERISCDFEEAAEPVLIQEGLKNTGCAIIFLLMYFFGMASSIWWVILTLTWFLAAGLKWGHEAIEMHSSYFHIAAWAIPAVKTIVILIMRLVDADELTGLCYVGNQNLDALTGFVVAPLFTYLVIGTLFIAAGLVALFKIRSNLQKDGTKTDKLERLMVKIGVFSVLYTVPATCVIACYFYEISNWALFRYSADDSNMAVEMLKIFMSLLVGITSGMWIWSAKTLHTWQKCSNRLVNSGKVKREKRGNGWVKPGKGSETVV
B2: CD317 (protein, UniProt Q10589 1-161, looked up)
Bone marrow stromal antigen 2: MASTSYDYCRVPMEDGDKRCKLLLGIGILVLLIIVILGVPLIIFTIKANSEACRDGLRAVMECRNVTHLLQQELTEAQKGFQDVEAQAATCNHTVMALMASLDAEKAQGQKKVEELEGEITTLNHKLQDASAEVERLRRENQVLSVRIADKKYYPSSQDSS
B3: CD95 (protein, UniProt P25445 26-335, looked up)
Tumor necrosis factor …: QVTDINSKGLELRKTVTTVETQNLEGLHHDGQFCHKPCPPGERKARDCTVNGDEPDCVPCQEGKEYTDKAHFSSKCRRCRLCDEGHGLEVEINCTRTQNTKCRCKPNFFCNSTVCEHCDPCTKCEHGIIKECTLTSNTKCKEEGSRSNLGWLCLLLLPIPLIVWVKRKEVQKTCRKHRKENQGSHESPTLNPETVAINLSDVDLSKYITTIAGVMTLSQVKGFVRKNGVNEAKIDEIKNDNVQDTAEQKVQLLRNWHQLHGKKEAYDTLIKDLKKANLCTLAEKIQTIILKDITSDSENSNFRNEIQSLV
B4: CD263 (protein, UniProt O14798 26-236, looked up)
Tumor necrosis factor …: ATTARQEEVPQQTVAPQQQRHSFKGEECPAGSHRSEHTGACNPCTEGVDYTNASNNEPSCFPCTVCKSDQKHKSSCTMTRDTVCQCKEGTFRNENSPEMCRKCSRCPSGEVQVSNCTSWDDIQCVEEFGANATVETPAAEETMNTSPGTPAPAAEETMNTSPGTPAPAAEETMTTSPGTPAPAAEETMTTSPGTPAPAAEETMITSPGTPA
B5: CD314 (protein, UniProt P26718 1-216, looked up)
NKG2-D type II integral …: MGWIRGRRSRHSWEMSEFHNYNLDLKKSDFSTRWQKQRCPVVKSKCRENASPFFFCCFIAVAMGIRFIIMVTIWSAVFLNSLFNQEVQIPLTESYCGPCPKNWICYKNNCYQFFDESKNWYESQASCMSQNASLLKVYSKEDQDLLKLVKSYHWMGLVHIPTNGSWQWEDGSILSPNLLTIIEMQKGDCALYASSFKGYIENCSTPNTYICMQRTV
B6: CD2 (protein, UniProt P06729 25-351, looked up)
T-cell surface antigen CD2: KEITNALETWGALGQDINLDIPSFQMSDDIDDIKWEKTSDKKKIAQFRKEKETFKEKDTYKLFKNGTLKIKHLKTDDQDIYKVSIYDTKGKNVLEKIFDLKIQERVSKPKISWTCINTTLTCEVMNGTDPELNLYQDGKHLKLSQRVITHKWTTSLSAKFKCTAGNKVSKESSVEPVSCPEKGLDIYLIIGICGGGSLLMVFVALLVFYITKRKKQRSRRNDEELETRAHRVATEERGRKPHQIPASTPQNPATSQHPPPPPGHRSQAPSHRPPPPGHRVQHQPQKRPPAPSGTQVHQQKGPPLPRPRVQPKPPHGAAENSLSPSSN
B7: CD30 (protein, UniProt P28908 19-595, looked up)
Tumor necrosis factor …: FPQDRPFEDTCHGNPSHYYDKAVRRCCYRCPMGLFPTQQCPQRPTDCRKQCEPDYYLDEADRCTACVTCSRDDLVEKTPCAWNSSRVCECRPGMFCSTSAVNSCARCFFHSVCPAGMIVKFPGTAQKNTVCEPASPGVSPACASPENCKEPSSGTIPQAKPTPVSPATSSASTMPVRGGTRLAQEAASKLTRAPDSPSSVGRPSSDPGLSPTQPCPEGSGDCRKQCEPDYYLDEAGRCTACVSCSRDDLVEKTPCAWNSSRTCECRPGMICATSATNSCARCVPYPICAAETVTKPQDMAEKDTTFEAPPLGTQPDCNPTPENGEAPASTSPTQSLLVDSQASKTLPIPTSAPVALSSTGKPVLDAGPVLFWVILVLVVVVGSSAFLLCHRRACRKRIRQKLHLCYPVQTSQPKLELVDSRPRRSSTQLRSGASVTEPVAEERGLMSQPLMETCHSVGAAYLESLPLQDASPAGGPSSPRDLPEPRVSTEHTNNKIEKIYIMKADTVIVGTVKAELPEGRGLAGPAEPELEEELEADHTPHYPEQETEPPLGSCSDVMLSVEEEGKEDPLPTAASGK
B8: CD336 (protein, UniProt O95944 22-276, looked up)
Natural cytotoxicity …: QSKAQVLQSVAGQTLTVRCQYPPTGSLYEKKGWCKEASALVCIRLVTSSKPRTMAWTSRFTIWDDPDAGFFTVTMTDLREEDSGHYWCRIYRPSDNSVSKSVRFYLVVSPASASTQTSWTPRDLVSSQTQTQSCVPPTAGARQAPESPSTIPVPSQPQNSTLRPGPAAPIALVPVFCGLLVAKSLVLSALLVWWGDIWWKTMMELRSLDTQKATCHLQQVTDLPWTSVSSPVEREILYHTVARTKISDDDDEHTL
B9: CD69 (protein, UniProt Q07108 1-199, looked up)
Early activation antigen CD69: MSSENCFVAENSSLHPESGQENDATSPHFSTRHEGSFQVPVLCAVMNVVFITILIIALIALSVGQYNCPGQYTFSMPSDSHVSSCSEDWVGYQRKCYFISTVKRSWTSAQNACSEHGATLAVIDSEKDMNFLKRYAGREEHWVGLKKEPGHPWKWSNGKEFNNWFNVTGSDKCVFLKNTEVSSMECEKNLYWICNKPYK
B10: CD50 (protein, UniProt P32942 30-547, looked up)
Intercellular adhesion …: QEFLLRVEPQNPVLSAGGSLFVNCSTDCPSSEKIALETSLSKELVASGMGWAAFNLSNVTGNSRILCSVYCNGSQITGSSNITVYRLPERVELAPLPPWQPVGQNFTLRCQVEDGSPRTSLTVVLLRWEEELSRQPAVEEPAEVTATVLASRDDHGAPFSCRTELDMQPQGLGLFVNTSAPRQLRTFVLPVTPPRLVAPRFLEVETSWPVDCTLDGLFPASEAQVYLALGDQMLNATVMNHGDTLTATATATARADQEGAREIVCNVTLGGERREARENLTVFSFLGPIVNLSEPTAHEGSTVTVSCMAGARVQVTLDGVPAAAPGQPAQLQLNATESDDGRSFFCSATLEVDGEFLHRNSSVQLRVLYGPKIDRATCPQHLKWKDKTRHVLQCQARGNPYPELRCLKEGSSREVPVGIPFFVNVTHNGTYQCQASSSRGKYTLVVVMDIEAGSSHFVPVFVAVLLTLGVVTIVLALMYVFREHQRSGSYHVREESTYLPLTSMQPTEAMGEEPSRAE
B11: CD276 (protein, UniProt Q5ZPR3 29-534, looked up)
CD276 antigen: LEVQVPEDPVVALVGTDATLCCSFSPEPGFSLAQLNLIWQLTDTKQLVHSFAEGQDQGSAYANRTALFPDLLAQGNASLRLQRVRVADEGSFTCFVSIRDFGSAAVSLQVAAPYSKPSMTLEPNKDLRPGDTVTITCSSYQGYPEAEVFWQDGQGVPLTGNVTTSQMANEQGLFDVHSILRVVLGANGTYSCLVRNPVLQQDAHSSVTITPQRSPTGAVEVQVPEDPVVALVGTDATLRCSFSPEPGFSLAQLNLIWQLTDTKQLVHSFTEGRDQGSAYANRTALFPDLLAQGNASLRLQRVRVADEGSFTCFVSIRDFGSAAVSLQVAAPYSKPSMTLEPNKDLRPGDTVTITCSSYRGYPEAEVFWQDGQGVPLTGNVTTSQMANEQGLFDVHSVLRVVLGANGTYSCLVRNPVLQQDAHGSVTITGQPMTFPPEALWVTVGLSVCLIALLVALAFVCWRKIKQSCEEENAGAEDQDGEGEGSKTALQPLKHSDSKEDDGQEIA
B12: CD5 (protein, UniProt P06127 25-495, looked up)
T-cell surface glycoprotein …: RLSWYDPDFQARLTRSNSKCQGQLEVYLKDGWHMVCSQSWGRSSKQWEDPSQASKVCQRLNCGVPLSLGPFLVTYTPQSSIICYGQLGSFSNCSHSRNDMCHSLGLTCLEPQKTTPPTTRPPPTTTPEPTAPPRLQLVAQSGGQHCAGVVEFYSGSLGGTISYEAQDKTQDLENFLCNNLQCGSFLKHLPETEAGRAQDPGEPREHQPLPIQWKIQNSSCTSLEHCFRKIKPQKSGRVLALLCSGFQPKVQSRLVGGSSICEGTVEVRQGAQWAALCDSSSARSSLRWEEVCREQQCGSVNSYRVLDAGDPTSRGLFCPHQKLSQCHELWERNSYCKKVFVTCQDPNPAGLAAGTVASIILALVLLVVLLVVCGPLAYKKLVKKFRQKKQRQWIGPTGMNQNMSFHRNHTATVRSHAENPTASHVDNEYSQPPRNSHLSAYPALEGALHRSSMQPDNSSDSDYDLHGAQRL
B13: CD337 (protein, UniProt O14931 19-201, looked up)
Natural cytotoxicity …: LWVSQPPEIRTLEGSSAFLPCSFNASQGRLAIGSVTWFRDEVVPGKEVRNGTPEFRGRLAPLASSRFLHDHQAELHIRDVRGHDASIYVCRVEVLGLGVGTGNGTRLVVEKEHPQLGAGTVLLLRAGFYAVSFLSVAVGSTVYYQGKCLTWKGPRRQLPAVVPAPLPPPCGSSAHLLPPVPGG

In one series the test system is undifferentiated hPSC (D0). As to the kind of experiment: High-throughput cell-surface marker screening (LEGENDScreen), %PE+. The format is cell-based, human. The conditions noted are these: percentage of cells bound to the PE-conjugated antibody (LEGENDScreen).
In the case of B1, the “% PE+ in H1 UD” value was found to be 96.5%.

Regarding B2, the “% PE+ in H1 UD” value turned out to be 99.4%.

As for B3, the “% PE+ in H1 UD” value was 78.2%.

With B4, the “% PE+ in H1 UD” value amounted to 1.91%.

In the case of B5, the “% PE+ in H1 UD” value is reported as 0.36%.

For the molecule B6, the “% PE+ in H1 UD” value was 0.039%.

For the molecule B7, the “% PE+ in H1 UD” value stood at 75.2%.

In the case of B8, the “% PE+ in H1 UD” value is given as 0.24%.

Regarding B9, the “% PE+ in H1 UD” value is recorded as 0.13%.

As to B10, the “% PE+ in H1 UD” value is given as 51.8%.

As to B11, the “% PE+ in H1 UD” value is given as 99.8%.

With B12, the “% PE+ in H1 UD” value is 0.2%.

With B13, the “% PE+ in H1 UD” value is given as 0.27%.

A further series deals with D3.5 SOX17-GFP+ PGCs. The description is as above. The format is cell-based, human. The conditions noted are these: percentage of cells bound to the PE-conjugated antibody (LEGENDScreen).
In the case of B1, the “% PE+ in PGCs” value was found to be 0.575%.

B2: the “% PE+ in PGCs” value is 0.7568%.

Take B4: the “% PE+ in PGCs” value stood at 0.02857%.

Take B5: the “% PE+ in PGCs” value turned out to be 0%.

For B6, the “% PE+ in PGCs” value was 0%.

Consider B7, for which the “% PE+ in PGCs” value was 0%.

Consider B8, for which the “% PE+ in PGCs” value came to 0%.

Turning to B11, the “% PE+ in PGCs” value stood at 0.9946%.

With B13, the “% PE+ in PGCs” value was 0%.

A further series deals with D3.5 SOX17-GFP- non-PGCs. The description is as above. To be noted: percentage of cells bound to the PE-conjugated antibody (LEGENDScreen). In kind it is cell-based, human.
Turning to B1, the “% PE+ in non-PGCs” value is 0.3957%.

In the case of B2, the “% PE+ in non-PGCs” value is recorded as 0.8957%.

Consider B4, for which the “% PE+ in non-PGCs” value worked out at 0.1537%.

Regarding B5, the “% PE+ in non-PGCs” value is reported as 6.622E-05%.

Take B6: the “% PE+ in non-PGCs” value is on record as 0%.

On to B7, for which the “% PE+ in non-PGCs” value stood at 0.0001415%.

On to B8, for which the “% PE+ in non-PGCs” value was 3.219E-05%.

B11: the “% PE+ in non-PGCs” value was found to be 0.9994%.

B13: the “% PE+ in non-PGCs” value is listed as 2.429E-05%.
